For the assay, the target named is Cynomolgus monkey Serum Albumin (Cynomolgus monkey) (UniProt A2V9Z4). Put plainly: BIAcore SPR.

By UniProt entry, the sequences of proteins in these tests, tags left out. Residues count along the entry.
UniProt A2V9Z4, residues 25-608: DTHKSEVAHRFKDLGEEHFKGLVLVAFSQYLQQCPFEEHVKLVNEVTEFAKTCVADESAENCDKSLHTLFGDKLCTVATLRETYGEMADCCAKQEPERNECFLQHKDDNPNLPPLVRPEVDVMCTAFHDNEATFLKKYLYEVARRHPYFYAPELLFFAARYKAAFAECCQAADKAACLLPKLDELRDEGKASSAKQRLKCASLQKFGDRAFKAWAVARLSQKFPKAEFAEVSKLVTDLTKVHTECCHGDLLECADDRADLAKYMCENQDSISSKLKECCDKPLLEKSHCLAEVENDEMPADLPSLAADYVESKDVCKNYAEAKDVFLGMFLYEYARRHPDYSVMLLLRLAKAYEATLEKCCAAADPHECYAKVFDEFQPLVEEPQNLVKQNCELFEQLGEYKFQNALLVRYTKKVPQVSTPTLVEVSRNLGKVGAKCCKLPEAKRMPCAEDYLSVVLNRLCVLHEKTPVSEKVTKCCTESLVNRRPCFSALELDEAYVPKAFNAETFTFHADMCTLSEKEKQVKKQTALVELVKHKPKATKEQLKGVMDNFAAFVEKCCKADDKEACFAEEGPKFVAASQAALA

These are yes or no findings as the source states them, for the method shown. Some entries that bind do so weakly or less than the wild type.

B1: DOM7h-11-3 (protein)
VL: DIQMTQSPSSLSASVGDRVTITCRASRPIGTTLSWYQQKPGKAPKLLILWNSRLQSGVPSRFSGSGSGTDFTLTISSLQPEDFATYYCAQAGTHPTTFGQGTKVEIKR
Regarding B1, the binding result is “binds”.

These data come from patent US20130129746A1.
